Patent US20220064276A1
These are yes or no findings as the source states them, for the method shown. Some entries that bind do so weakly or less than the wild type.

Sequences of proteins named here, by UniProt entry; tags and fusion partners are left off. A change or cut given only in a name is not applied to a line headed by its entry.
UniProt Q14766: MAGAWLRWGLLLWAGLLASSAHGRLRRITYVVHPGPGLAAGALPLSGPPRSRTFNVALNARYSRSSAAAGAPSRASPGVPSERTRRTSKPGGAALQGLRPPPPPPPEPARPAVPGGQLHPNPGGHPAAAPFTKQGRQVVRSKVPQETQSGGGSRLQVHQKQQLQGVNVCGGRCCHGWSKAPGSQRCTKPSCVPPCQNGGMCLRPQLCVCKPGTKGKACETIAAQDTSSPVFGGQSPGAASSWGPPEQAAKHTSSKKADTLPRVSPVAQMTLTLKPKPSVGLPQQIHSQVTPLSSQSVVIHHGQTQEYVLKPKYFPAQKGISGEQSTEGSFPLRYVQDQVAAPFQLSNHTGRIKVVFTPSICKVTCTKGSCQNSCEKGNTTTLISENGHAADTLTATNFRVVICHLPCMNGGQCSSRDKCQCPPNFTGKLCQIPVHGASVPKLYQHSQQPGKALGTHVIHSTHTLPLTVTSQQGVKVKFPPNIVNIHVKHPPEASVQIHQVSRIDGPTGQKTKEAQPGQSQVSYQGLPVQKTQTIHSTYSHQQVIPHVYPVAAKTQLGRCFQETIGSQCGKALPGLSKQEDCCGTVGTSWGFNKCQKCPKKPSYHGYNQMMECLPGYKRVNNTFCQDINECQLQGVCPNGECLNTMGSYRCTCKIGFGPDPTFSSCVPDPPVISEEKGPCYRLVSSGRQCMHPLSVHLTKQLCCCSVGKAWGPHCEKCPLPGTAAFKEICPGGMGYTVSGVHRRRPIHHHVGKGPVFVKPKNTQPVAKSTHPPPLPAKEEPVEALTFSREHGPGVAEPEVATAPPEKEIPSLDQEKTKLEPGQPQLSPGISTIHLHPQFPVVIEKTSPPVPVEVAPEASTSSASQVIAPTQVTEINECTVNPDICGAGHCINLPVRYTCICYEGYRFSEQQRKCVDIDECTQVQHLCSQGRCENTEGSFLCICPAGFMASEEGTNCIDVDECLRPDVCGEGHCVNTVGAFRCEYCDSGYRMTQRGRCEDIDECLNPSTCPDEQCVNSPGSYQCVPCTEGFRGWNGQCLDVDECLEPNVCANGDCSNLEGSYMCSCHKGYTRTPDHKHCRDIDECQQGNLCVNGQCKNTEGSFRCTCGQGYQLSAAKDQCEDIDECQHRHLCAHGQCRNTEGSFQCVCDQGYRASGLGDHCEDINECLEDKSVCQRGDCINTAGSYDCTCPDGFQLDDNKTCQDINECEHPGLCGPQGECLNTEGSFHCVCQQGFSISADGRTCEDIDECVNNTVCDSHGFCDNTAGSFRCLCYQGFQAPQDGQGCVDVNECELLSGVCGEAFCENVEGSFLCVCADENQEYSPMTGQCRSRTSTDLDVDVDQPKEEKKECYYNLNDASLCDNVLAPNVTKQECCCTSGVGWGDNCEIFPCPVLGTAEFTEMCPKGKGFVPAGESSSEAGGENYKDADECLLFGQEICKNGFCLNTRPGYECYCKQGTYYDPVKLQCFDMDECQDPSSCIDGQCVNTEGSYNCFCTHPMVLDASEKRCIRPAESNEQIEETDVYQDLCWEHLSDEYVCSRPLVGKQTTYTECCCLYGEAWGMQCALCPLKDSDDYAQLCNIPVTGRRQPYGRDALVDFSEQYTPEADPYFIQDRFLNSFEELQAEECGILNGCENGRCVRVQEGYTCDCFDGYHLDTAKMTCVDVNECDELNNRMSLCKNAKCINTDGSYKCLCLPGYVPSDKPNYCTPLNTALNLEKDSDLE
UniProt Q86YC3: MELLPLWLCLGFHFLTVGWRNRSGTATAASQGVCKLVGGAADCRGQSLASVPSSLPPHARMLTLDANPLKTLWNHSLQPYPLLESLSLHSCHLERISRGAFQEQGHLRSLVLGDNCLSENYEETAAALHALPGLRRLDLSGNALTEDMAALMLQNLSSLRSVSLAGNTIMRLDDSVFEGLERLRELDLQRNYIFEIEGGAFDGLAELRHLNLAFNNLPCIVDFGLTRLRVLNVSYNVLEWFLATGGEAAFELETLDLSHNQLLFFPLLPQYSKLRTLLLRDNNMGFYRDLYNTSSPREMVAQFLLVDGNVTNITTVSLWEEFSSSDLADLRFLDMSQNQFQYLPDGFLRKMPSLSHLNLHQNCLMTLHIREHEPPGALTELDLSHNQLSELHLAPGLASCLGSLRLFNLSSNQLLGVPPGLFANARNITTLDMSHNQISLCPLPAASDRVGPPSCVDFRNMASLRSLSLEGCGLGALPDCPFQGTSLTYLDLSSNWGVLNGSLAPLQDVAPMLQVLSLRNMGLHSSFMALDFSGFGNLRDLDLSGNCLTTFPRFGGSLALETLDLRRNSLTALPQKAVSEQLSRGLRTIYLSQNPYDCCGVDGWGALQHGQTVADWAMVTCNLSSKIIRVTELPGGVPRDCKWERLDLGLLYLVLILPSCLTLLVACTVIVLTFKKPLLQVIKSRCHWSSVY
UniProt Q9NS15: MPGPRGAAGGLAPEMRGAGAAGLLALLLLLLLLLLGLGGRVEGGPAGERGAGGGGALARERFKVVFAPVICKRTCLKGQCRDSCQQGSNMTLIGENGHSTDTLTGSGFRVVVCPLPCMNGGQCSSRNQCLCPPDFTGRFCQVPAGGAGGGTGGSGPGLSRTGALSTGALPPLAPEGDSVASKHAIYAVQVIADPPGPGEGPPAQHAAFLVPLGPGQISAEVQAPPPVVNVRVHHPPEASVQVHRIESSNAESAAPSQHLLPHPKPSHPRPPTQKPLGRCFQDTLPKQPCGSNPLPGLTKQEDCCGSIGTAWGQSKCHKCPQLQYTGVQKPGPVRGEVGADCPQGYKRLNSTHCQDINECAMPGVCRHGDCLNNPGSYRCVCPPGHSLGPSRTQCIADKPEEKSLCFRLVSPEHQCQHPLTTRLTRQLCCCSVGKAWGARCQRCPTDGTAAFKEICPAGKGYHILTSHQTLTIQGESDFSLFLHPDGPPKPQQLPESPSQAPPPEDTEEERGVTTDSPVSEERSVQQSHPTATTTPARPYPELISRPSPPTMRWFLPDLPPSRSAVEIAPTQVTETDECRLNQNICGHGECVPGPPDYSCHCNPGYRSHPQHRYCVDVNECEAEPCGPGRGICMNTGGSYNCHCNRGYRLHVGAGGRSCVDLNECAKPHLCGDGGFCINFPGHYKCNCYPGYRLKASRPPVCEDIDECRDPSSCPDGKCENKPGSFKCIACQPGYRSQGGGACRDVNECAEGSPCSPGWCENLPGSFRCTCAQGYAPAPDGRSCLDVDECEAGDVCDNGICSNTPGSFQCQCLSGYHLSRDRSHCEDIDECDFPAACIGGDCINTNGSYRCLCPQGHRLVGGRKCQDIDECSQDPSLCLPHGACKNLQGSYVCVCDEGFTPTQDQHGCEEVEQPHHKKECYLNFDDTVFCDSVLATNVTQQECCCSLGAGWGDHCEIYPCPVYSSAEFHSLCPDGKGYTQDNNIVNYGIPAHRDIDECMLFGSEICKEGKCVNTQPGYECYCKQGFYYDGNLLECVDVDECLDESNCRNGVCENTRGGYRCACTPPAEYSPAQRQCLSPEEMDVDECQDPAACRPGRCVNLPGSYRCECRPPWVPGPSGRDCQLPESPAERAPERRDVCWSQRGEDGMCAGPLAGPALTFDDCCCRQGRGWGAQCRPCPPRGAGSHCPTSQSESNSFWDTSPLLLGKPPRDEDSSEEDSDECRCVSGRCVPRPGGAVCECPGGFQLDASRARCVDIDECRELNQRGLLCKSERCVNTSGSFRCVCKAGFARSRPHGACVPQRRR
UniProt Q14392: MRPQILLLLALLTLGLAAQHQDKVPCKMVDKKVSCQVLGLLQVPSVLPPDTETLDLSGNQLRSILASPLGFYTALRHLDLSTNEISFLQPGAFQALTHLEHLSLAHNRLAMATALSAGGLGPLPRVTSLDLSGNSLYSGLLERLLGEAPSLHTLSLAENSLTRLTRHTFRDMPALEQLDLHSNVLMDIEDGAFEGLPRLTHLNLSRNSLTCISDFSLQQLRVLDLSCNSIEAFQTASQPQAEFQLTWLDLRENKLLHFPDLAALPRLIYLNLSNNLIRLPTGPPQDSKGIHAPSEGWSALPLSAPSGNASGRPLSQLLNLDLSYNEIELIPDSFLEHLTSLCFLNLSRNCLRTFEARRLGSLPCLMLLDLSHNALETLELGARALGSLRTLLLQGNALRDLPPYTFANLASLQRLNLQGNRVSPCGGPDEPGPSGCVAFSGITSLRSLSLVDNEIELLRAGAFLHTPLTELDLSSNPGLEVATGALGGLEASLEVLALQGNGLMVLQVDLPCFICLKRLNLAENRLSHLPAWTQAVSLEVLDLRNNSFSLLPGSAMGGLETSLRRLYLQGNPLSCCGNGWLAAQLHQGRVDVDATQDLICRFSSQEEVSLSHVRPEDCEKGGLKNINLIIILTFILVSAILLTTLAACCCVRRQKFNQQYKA

Assays:
[1] = target: human LTBP1-proTGFβ1 complex (human) (UniProt Q14766); assay: Octet (bio-layer interferometry), response at 200 nM antigen; 0.1 nm cutoff designates meaningful binding
[2] = target: human LTBP1-proTGFβ1 complex (human) (UniProt Q14766); assay: Octet BLI (FIG. 11)
[3] = target: human LRRC33-proTGFβ1 complex (human) (UniProt Q86YC3); assay: SPR (Biacore 8K), biotinylated antigen captured, Fab as analyte (Example 9); concentrations not shown on the sheet
[4] = target: human LTBP1-proTGFβ1 complex (human) (UniProt Q14766); assay: as above
[5] = target: human LTBP3-proTGFβ1 complex (human) (UniProt Q9NS15); assay: as above
[6] = target: human LTBP1-proTGFβ1 complex (human) (UniProt Q14766); assay: SPR Biacore 8K (FIG. 24)
[7] = target: human LTBP3-proTGFβ1 complex (human) (UniProt Q9NS15); assay: SPR Biacore 8K (FIG. 24)
[8] = target: human GARP-proTGFβ1 complex (human) (UniProt Q14392); assay: Octet (bio-layer interferometry), response at 200 nM antigen; 0.1 nm cutoff designates meaningful binding
[9] = target: human LTBP1-proTGFβ1 complex (human) (UniProt Q14766); assay: Octet, antibody immobilized
[10] = target: human LTBP3-proTGFβ1 complex (human) (UniProt Q9NS15); assay: Octet BLI (FIG. 11)
[11] = target: human LTBP3-proTGFβ1 complex (human) (UniProt Q9NS15); assay: SPR Biacore 8K (FIG. 23)

Row | binding [1] | binding [8] | Binder | further results
1 | binds | – | SR-AB10 (antibody, IgG1, V domains shown) VH: QLQLQESGGGVVQPGRSLRLSCAASGFTFNNYPIHWVRQAPGKGLEWVAVMSYDGINKYYADSVKGRFTISRDNSKNTLYLQMNSLRAEDTAVYYCARPRIAARRGGFDYWGQGTLVTVSS VL: NFMLTQPHSVSESPGKTVTISCTRSSGNIDNNYVQWYQQRPGSSPTTVIYEDNQRPSGVPDRFSGSIDSSSNSASLTISGLKTEDEADYYCQSYDSDNQGVVFGGGTKLTVL | binding [2]: binds
2 | – | – | SR-AB42-HuFab (Fab, V domains shown) VH: QVQLVESGGGVVQPGRSLRLSCAASGFTFRSYVMHWVRQAPGKGLEWVAVISHEGSLKYYADSVKGRFTISRDNSKNTLYLQMNSLRAEDTAVYYCARPRIAARRGGFGYWGQGTLVTVSS VL: NFMLTQPHSVSESPGKTVTISCTRSSGNIDNNYVQWYQQRPGSSPTTVIYEDNQRPSGVPDRFSGSIDSSSNSASLTISGLKTEDEADYYCQSYDYDTQGVVFGGGTKLTVL | binding [3]: binds; binding [4]: binds; binding [5]: binds; binding [6]: binds; binding [7]: binds
3 | binds | binds | SR-AB37 (antibody, IgG1, V domains shown) VH: QVQLVESGGGVVQPGRSLRLSCAASGFTFRSYVMHWVRQAPGKGLEWVAVISHEGSLKYYADSVKGRFTISRDNSKNTLYLQMNSLRAEDTAVYYCAVPRIAARRGGFGYWGQGTLVTVSS VL: NFMLTQPHSVSESPGKTVTISCTRSSGLIDDNYVQWYQQRPGSSPTTVIYEDNQRPSGVPDRFSGSIDSSSNSASLTISGLKTEDEADYYCQSYDSDLQRVVFGGGTKLTVL | –
4 | binds | binds | SR-AB39 (antibody, IgG1, V domains shown) VH: QVQLVESGGGVVQPGRSLRLSCAASGFTFRSYVMHWVRQAPGKGLEWVAVISHEGSLKYYADSVKGRFTISRDNSKNTLYLQMNSLRAEDTAVYYCAVPRIAARRGGFGYWGQGTLVTVSS VL: NFMLTQPHSVSESPGKTVTISCTRSSGLIDDNYVQWYQQRPGSSPTTVIYEDAQRPSGVPDRFSGSIDSSSNSASLTISGLKTEDEADYYCQSYDHDEQGVVFGGGTKLTVL | –
5 | binds | binds | SR-AB44 (antibody, IgG1, V domains shown) VH: QVQLVESGGGVVQPGRSLRLSCAASGFTFRSYVMHWVRQAPGKGLEWVAVISHEGSLKYYADSVKGRFTISRDNSKNTLYLQMNSLRAEDTAVYYCARPRIAARRGGFGYWGQGTLVTVSS VL: NFMLTQPHSVSESPGKTVTISCTRSHGNIDDNYVQWYQQRPGSSPTTVIYEDNVRPSGVPDRFSGSIDSSSNSASLTISGLKTEDEADYYCQSYDSDNQLVVFGGGTKLTVL | –
6 | binds | binds | SR-AB22 (antibody, IgG1, V domains shown) VH: QVQLVESGGGVVQPGRSLRLSCAASGFTFRSYVMHWVRQAPGKGLEWVAVISHEGSLKYYADSVKGRFTISRDNSKNTLYLQMNSLRAEDTAVYYCAVPRIAARRGGFGYWGQGTLVTVSS VL: NFMLTQPHSVSESPGKTVTISCTRSSGNIDNNYVQWYQQRPGSSPTTVIYEDNQRPSGVPDRFSGSIDSSSNSASLTISGLKTEDEADYYCQSYDSDNQGVVFGGGTKLTVL | binding [9]: binds
7 | binds | – | SR-AB41 (antibody, IgG1, V domains shown) VH: QVQLVESGGGVVQPGRSLRLSCAASGFTFRSYVMHWVRQAPGKGLEWVAVISHEGSLKYYADSVKGRFTISRDNSKNTLYLQMNSLRAEDTAVYYCARPRIAARRGGFGYWGQGTLVTVSS VL: NFMLTQPHSVSESPGKTVTISCTRSSGNIDNNYVQWYQQRPGSSPTTVIYEDNQRPSGVPDRFSGSIDSSSNSASLTISGLKTEDEADYYCQSYDYDNQAVVFGGGTKLTVL | –
8 | binds | binds | SR-AB34 (antibody, IgG1, V domains shown) VH: QVQLVESGGGVVQPGRSLRLSCAASGFTFRSYVMHWVRQAPGKGLEWVAVISHEGSLKYYADSVKGRFTISRDNSKNTLYLQMNSLRAEDTAVYYCAVPRIAARRGGFGYWGQGTLVTVSS VL: NFMLTQPHSVSESPGKTVTISCTRSSGNIDNNYVQWYQQRPGSSPTTVIYEDNQRPSGVPDRFSGSIDSSSNSASLTISGLKTEDEADYYCQSYDYDAQGVVFGGGTKLTVL | –
9 | binds | – | SR-AB40 (antibody, IgG1, V domains shown) VH: QVQLVESGGGVVQPGRSLRLSCAASGFTFRSYVMHWVRQAPGKGLEWVAVISHEGSLKYYADSVKGRFTISRDNSKNTLYLQMNSLRAEDTAVYYCARPRIAARRGGFGYWGQGTLVTVSS VL: NFMLTQPHSVSESPGKTVTISCTRSSGNIDNNYVQWYQQRPGSSPTTVIYEDNQRPSGVPDRFSGSIDSSSNSASLTISGLKTEDEADYYCQSYDYSNQGVVFGGGTKLTVL | –
10 | binds | – | SR-AB43 (antibody, IgG1, V domains shown) VH: QVQLVESGGGVVQPGRSLRLSCAASGFTFRSYVMHWVRQAPGKGLEWVAVISHEGSLKYYADSVKGRFTISRDNSKNTLYLQMNSLRAEDTAVYYCARPRIAARRGGFGYWGQGTLVTVSS VL: NFMLTQPHSVSESPGKTVTISCTRSSGNIDYNYVQWYQQRPGSSPTTVIYEDNVRPSGVPDRFSGSIDSSSNSASLTISGLKTEDEADYYCQSYDSDNQRVVFGGGTKLTVL | –
11 | binds | binds | SR-AB45 (antibody, IgG1, V domains shown) VH: QVQLVESGGGVVQPGRSLRLSCAASGFTFRSYVMHWVRQAPGKGLEWVAVISHEGSLKYYADSVKGRFTISRDNSKNTLYLQMNSLRAEDTAVYYCARPRIAARRGGFGYWGQGTLVTVSS VL: NFMLTQPHSVSESPGKTVTISCTRSSGAIDDNYVQWYQQRPGSSPTTVIYEDFQRPSGVPDRFSGSIDSSSNSASLTISGLKTEDEADYYCQSYDDDLQGVVFGGGTKLTVL | –
12 | binds | – | SR-AB23 (antibody, IgG1, V domains shown) VH: QVQLVESGGGVVQPGRSLRLSCAASGFTFRSYVMHWVRQAPGKGLEWVAVISHEGSLKYYADSVKGRFTISRDNSKNTLYLQMNSLRAEDTAVYYCARPRIAARRGGFGYWGQGTLVTVSS VL: NFMLTQPHSVSESPGKTVTISCTRSSGNIDNNYVQWYQQRPGSSPTTVIYEDNQRPSGVPDRFSGSIDSSSNSASLTISGLKTEDEADYYCQSYDSDNQGVVFGGGTKLTVL | binding [9]: binds
13 | binds | – | SR-AB42 (antibody, IgG1, V domains shown) VH: QVQLVESGGGVVQPGRSLRLSCAASGFTFRSYVMHWVRQAPGKGLEWVAVISHEGSLKYYADSVKGRFTISRDNSKNTLYLQMNSLRAEDTAVYYCARPRIAARRGGFGYWGQGTLVTVSS VL: NFMLTQPHSVSESPGKTVTISCTRSSGNIDNNYVQWYQQRPGSSPTTVIYEDNQRPSGVPDRFSGSIDSSSNSASLTISGLKTEDEADYYCQSYDYDTQGVVFGGGTKLTVL | –
14 | binds | – | SR-AB31 (antibody, IgG1, V domains shown) VH: QVQLVESGGGVVQPGRSLRLSCAASGFTFRSYVMHWVRQAPGKGLEWVAVISHEGSLKYYADSVKGRFTISRDNSKNTLYLQMNSLRAEDTAVYYCAVPRIAARRGGFGYWGQGTLVTVSS VL: NFMLTQPHSVSESPGKTVTISCTRSSGNIDNNYVQWYQQRPGSSPTTVIYEDNQRPSGVPDRFSGSIDSSSNSASLTISGLKTEDEADYYCQSYDFNNQGVVFGGGTKLTVL | –
15 | binds | – | SR-AB13 (antibody, IgG1, V domains shown) VH: QLQLQESGPGLVKPSETLSLTCTVSGGSISSSSYYWGWIRQPPGKGLEWIGSISYSGSTYYNPSLKSRVTISVDTSKNQFSLKLSSVTAADTAVYYCARDPSYDSIAGMDVWGQGTTVTVSS VL: DIQLTQSPSSLSASVGDRVTITCRASQSISSYLNWYQQKPGKAPKLLIYAASNLQSGVPSRFSGSGSGTDFTLTISSLQPEDFATYYCQQSFDFPFTFGGGTKVEIK | binding [2]: binds; binding [10]: binds
16 | – | – | SR-AB63-HuFab (Fab, V domains shown) VH: QLQLQESGPGLVKPSETLSLTCTVSGGSIRSSSYYWGWIRQPPGKGLEWIGSISYSATTYYNPSLKSRVTISVDTSKNQFSLKLSSVTAADTAVYYCAGDPSYDSIAGMQVWGQGTTVTVSS VL: DIQLTQSPSSLSASVGDRVTITCRASQSISSYLNWYQQKPGKAPKLLIYAASNLQSGVPSRFSGSGSGTDFTLTISSLQPEDFATYYCQQSFDWPLTFGGGTKVEIK | binding [11]: binds
17 | binds | – | SR-AB64 (antibody, IgG1, V domains shown) VH: QLQLQESGPGLVKPSETLSLTCTVSGGSIRSSSYYWGWIRQPPGKGLEWIGSISYSATTYYNPSLKSRVTISVDTSKNQFSLKLSSVTAADTAVYYCAGDPSYDSIAGMQVWGQGTTVTVSS VL: DIQMTQSPSSLSASVGDRVTITCRASQSISYYLNWYQQKPGKAPKLLIYSASSRQSGVPSRFSGSGSGTDFTLTISSLQPEDFATYYCQQGFDFPLTFGGGTKVEIK | –
18 | binds | – | SR-AB62 (antibody, IgG1, V domains shown) VH: QLQLQESGPGLAKPSETLSLTCTVSGGSIRSSSYYWGWIRQPPGKGLEWIGSISYSATTYYNPSLKSRVTISVDTSKNQFSLKLSSVTAADTAVYYCASDPSYDSAAGMDVWGQGTTVTVSS VL: DIQMTQSPSSLSASVGDRVTITCRASKVISSYLNWYQQKPGKAPKLLIYYASSLQSGVPSRFSGSGSGTDFTLTISSLQPEDFATYYCQQSNDWPFTFGGGTKVEIK | –
